# Source: patent US20130302346A1 (LEXICON PHARMACEUTICALS, published 2013)
# Results are given in words; binding and its absence hold for the method and conditions named. Some entries that bind do so weakly or less than the wild type.
# T1: Human NOTUM (human, UniProt Q6P988 20-496)
# T1 sequence: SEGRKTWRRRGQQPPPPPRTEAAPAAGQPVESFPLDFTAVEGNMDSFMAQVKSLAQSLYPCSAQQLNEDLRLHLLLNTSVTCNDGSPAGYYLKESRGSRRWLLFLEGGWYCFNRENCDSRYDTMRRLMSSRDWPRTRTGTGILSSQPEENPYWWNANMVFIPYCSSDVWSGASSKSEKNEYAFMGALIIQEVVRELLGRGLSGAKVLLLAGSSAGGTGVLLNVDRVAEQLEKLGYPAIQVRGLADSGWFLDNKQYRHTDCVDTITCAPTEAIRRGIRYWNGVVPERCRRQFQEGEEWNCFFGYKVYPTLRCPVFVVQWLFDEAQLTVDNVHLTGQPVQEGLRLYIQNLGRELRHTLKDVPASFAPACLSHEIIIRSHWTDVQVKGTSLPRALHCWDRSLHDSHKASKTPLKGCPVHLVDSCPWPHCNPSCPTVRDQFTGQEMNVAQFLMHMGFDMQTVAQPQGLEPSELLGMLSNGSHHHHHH
# Target: T1, Human NOTUM
# Assay: ELISA with conditioned medium
row,binding,Binder
1,binds,"Humanized MAb 1.802 (antibody, human IgG2, kappa, V domains shown) VH: EVQLVESGGGLVQPGGSLRLSCAASGFTFSDYGMHWVRQAPGKGLEWVSYISSGSRTVYYADSVKGRFTISRDNAKNSLYLQMNSLRDEDTAVYYCARKHYNGGYFDVWGQGTLVTVSS VL: DIVMTQSPDSLAVSLGERATINCRASKIVSTSGYSYMHWYQQKPGQPPKLLIYLASNLESGVPDRFSGSGSGTDFTLTISSLQAEDVAVYYCQHSRELPPTFGQGTKLEIKR"
2,binds,"Humanized MAb 1.846 (antibody, human IgG2, kappa, V domains shown) VH: EVQLVESGGGLVQPGGSLRLSCAASGFTFSDYGMHWVRQAPGKGLEWVSYISSGSTTLSYADSVKGRFTISRDNAKNSLYLQMNSLRDEDTAVYYCARKNYNGGYFDVWGQGTLVTVSS VL: DIVMTQSPDSLAVSLGERATINCRASKSVSESGYSYMHWYQQKPGQPPKLLIYLASNLESGVPDRFSGSGSGTDFTLTISSLQAEDVAVYYCQHSRVLPPTFGQGTKLEIKR"
3,binds,"Humanized MAb 1.815 (antibody, human IgG2, kappa, V domains shown) VH: QVQLVESGGGLVKPGGSLRLSCAASGFTFSDFGMHWIRQAPGKGLEWVSYSSSGGTTVYYADSVKGRFTISRDNAKNSLYLQMNSLRAEDTAVYYCARASYDGGYFDCWGQGTTVTVSS VL: DIVMTQSPDSLAVSLGERATINCRASKSVSTSGYSYIHWYQQKPGQPPKLLIYLASDLESGVPDRFSGSGSGTDFTLTISSLQAEDVAVYYCHHSRELPFTFGQGTKLEIKR"
4,binds,"Humanized MAb 2.1029 (antibody, human IgG2, kappa, V domains shown) VH: QVQLQESGPGLVKPSETLSLTCTVSGFSLTSYGVHWIRQPPGKGLEWIGVIWAGGSTNYNPSLKSRVTISVDTSKNQFSLKLSSVTAADTAVYYCARDGDYGTIYAMDYWGQGTLVTVSS VL: DIQMTQSPSSLSASVGDRVTITCRASQDISNYLNWYQQKPGKAPKLLIYYTSRLHSGVPSRFSGSGSGTDFTFTISSLQPEDIATYYCQQGKTLPRTFGGGTKVEIKR"
